Binding data for 1 molecule are collected here from patent US20040091907A1.

By UniProt entry, the sequences of proteins in these tests, tags left out. Where a name states a change or a piece, a line headed by the entry shows the natural chain unless it says otherwise.
UniProt Q92974: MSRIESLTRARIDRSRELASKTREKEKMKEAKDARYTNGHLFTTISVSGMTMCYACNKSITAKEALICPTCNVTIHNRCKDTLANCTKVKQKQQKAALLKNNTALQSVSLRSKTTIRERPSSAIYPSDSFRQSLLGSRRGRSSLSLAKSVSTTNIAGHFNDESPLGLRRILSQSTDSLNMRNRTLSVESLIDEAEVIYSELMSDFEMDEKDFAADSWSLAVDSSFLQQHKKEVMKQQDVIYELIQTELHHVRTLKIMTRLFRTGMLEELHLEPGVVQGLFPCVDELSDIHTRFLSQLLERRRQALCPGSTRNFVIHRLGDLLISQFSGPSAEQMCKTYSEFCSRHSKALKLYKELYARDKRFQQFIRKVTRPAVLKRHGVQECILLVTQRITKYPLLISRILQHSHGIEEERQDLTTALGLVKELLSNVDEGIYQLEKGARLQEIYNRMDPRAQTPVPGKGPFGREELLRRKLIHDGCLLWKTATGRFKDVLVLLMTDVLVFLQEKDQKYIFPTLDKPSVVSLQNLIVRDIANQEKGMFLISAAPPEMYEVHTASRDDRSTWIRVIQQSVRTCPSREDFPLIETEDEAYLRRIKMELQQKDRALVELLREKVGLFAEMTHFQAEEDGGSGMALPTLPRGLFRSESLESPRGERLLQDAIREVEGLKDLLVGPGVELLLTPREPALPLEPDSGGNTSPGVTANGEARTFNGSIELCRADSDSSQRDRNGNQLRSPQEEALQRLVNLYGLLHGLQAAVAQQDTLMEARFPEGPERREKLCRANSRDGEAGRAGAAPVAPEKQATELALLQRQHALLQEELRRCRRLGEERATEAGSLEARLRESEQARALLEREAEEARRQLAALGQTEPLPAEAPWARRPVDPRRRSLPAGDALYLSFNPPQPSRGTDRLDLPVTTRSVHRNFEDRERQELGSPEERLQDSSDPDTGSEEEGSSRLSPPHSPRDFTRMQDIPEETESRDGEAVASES

These are yes or no findings as the source states them, for the method shown. In cells and extracts the contact can be indirect. Some binding calls cover weakened binding; strength is not graded here. Where a sequence is shown, tags or fusion partners need not be part of it.

The target of the assay is T1, GFP-GEF-H1 (human) (UniProt Q92974).
T1 sequence: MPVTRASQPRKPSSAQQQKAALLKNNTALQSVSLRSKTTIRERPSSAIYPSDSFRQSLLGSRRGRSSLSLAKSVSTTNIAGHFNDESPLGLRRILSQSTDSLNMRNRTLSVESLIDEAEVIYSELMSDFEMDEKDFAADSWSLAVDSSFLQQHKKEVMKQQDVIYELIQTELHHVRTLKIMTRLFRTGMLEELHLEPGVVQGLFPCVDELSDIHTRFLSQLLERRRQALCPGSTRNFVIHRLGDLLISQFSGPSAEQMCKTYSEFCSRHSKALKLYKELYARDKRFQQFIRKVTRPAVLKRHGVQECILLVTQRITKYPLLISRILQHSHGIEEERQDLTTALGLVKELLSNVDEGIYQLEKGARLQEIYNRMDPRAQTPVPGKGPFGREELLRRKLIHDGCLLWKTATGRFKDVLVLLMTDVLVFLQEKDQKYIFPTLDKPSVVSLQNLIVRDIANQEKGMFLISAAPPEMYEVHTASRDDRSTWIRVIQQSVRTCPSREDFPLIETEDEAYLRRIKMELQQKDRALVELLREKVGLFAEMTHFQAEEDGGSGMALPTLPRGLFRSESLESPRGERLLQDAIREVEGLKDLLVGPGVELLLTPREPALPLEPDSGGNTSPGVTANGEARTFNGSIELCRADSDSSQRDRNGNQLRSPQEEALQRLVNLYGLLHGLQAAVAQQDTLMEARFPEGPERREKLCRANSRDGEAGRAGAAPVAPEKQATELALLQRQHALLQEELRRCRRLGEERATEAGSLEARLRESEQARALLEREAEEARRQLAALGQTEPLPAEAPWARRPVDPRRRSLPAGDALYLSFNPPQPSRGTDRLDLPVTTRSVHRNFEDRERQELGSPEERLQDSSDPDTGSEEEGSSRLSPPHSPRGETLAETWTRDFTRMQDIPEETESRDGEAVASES
Kind of assay: biotinylated peptide on streptavidin beads, pull-down from 293T lysate, GEF-H1 immunoblot.

B1: biotinylated PAK4 peptide consisting of amino acids 276-324 (peptide)
peptide: CTPAAPAVPAVPGPPGPRSPQREPQRVSHEQFRAALQLVVDPGDPRSYLDNF
modifications: biotinylated (position not given)
As for B1, the binding result is listed as “binds”.
